In ChEMBL document CHEMBL3232851 (Bioorg Med Chem, 2014):
pEC50: −log10 of the molar value.

Assay: Membrane permeabilizing activity of the compound in calcein-loaded egg phosphatidylcholine liposomes assessed as release of calcein from liposomes at pH 6.8 after 10 mins by fluorescence assay
Assay type: ADME, Microsome

NS(=O)(=O)c1ccc(-n2nc(C(F)(F)F)cc2-c2ccccc2)cc1 showed a pEC50 of 3.92.
